In ChEMBL document CHEMBL4316593 (Eur J Med Chem, 2019):
Further values from the same series stand in other lists.

Columns and labels:
Type in all cases: cell-based
Details in all cases: U-87MG ATCC
[1] = Inhibition of RTK/PI3K/AKT/mTOR signaling in human U87 cells assessed as down regulation of MED23 gene expression at cytotoxic IC50 measured after 48 hrs relative to control
[2] = Inhibition of RTK/PI3K/AKT/mTOR signaling in human U87 cells assessed as up regulation of SMS gene expression at cytotoxic IC50 measured after 48 hrs relative to control
[3] = Inhibition of RTK/PI3K/AKT/mTOR signaling in human U87 cells assessed as up regulation of DIRAS family GTPase 1 gene expression at cytotoxic IC50 measured after 48 hrs relative to control
[4] = Inhibition of RTK/PI3K/AKT/mTOR signaling in human U87 cells assessed as down regulation of SMARCA2 gene expression at cytotoxic IC50 measured after 48 hrs relative to control
[5] = Inhibition of RTK/PI3K/AKT/mTOR signaling in human U87 cells assessed as down regulation of DDIAS gene expression at cytotoxic IC50 measured after 48 hrs relative to control
[6] = Inhibition of RTK/PI3K/AKT/mTOR signaling in human U87 cells assessed as down regulation of CYHR1 gene expression at cytotoxic IC50 measured after 48 hrs relative to control
[7] = Inhibition of RTK/PI3K/AKT/mTOR signaling in human U87 cells assessed as up regulation of ZNF33B gene expression at cytotoxic IC50 measured after 48 hrs relative to control
[8] = Inhibition of RTK/PI3K/AKT/mTOR signaling in human U87 cells assessed as down regulation of RPA3 gene expression at cytotoxic IC50 measured after 48 hrs relative to control
[9] = Inhibition of RTK/PI3K/AKT/mTOR signaling in human U87 cells assessed as up regulation of transcription factor 7 like 1 gene expression at cytotoxic IC50 measured after 48 hrs relative to control
[10] = Inhibition of RTK/PI3K/AKT/mTOR signaling in human U87 cells assessed as up regulation of suppressor of cytokine signaling 5 gene expression at cytotoxic IC50 measured after 48 hrs relative to control
[11] = Inhibition of RTK/PI3K/AKT/mTOR signaling in human U87 cells assessed as up regulation of TBK1 binding protein 1 gene expression at cytotoxic IC50 measured after 48 hrs relative to control
[12] = Inhibition of RTK/PI3K/AKT/mTOR signaling in human U87 cells assessed as up regulation of CUL4A gene expression at cytotoxic IC50 measured after 48 hrs relative to control
[13] = Inhibition of RTK/PI3K/AKT/mTOR signaling in human U87 cells assessed as down regulation of DISP1 gene expression at cytotoxic IC50 measured after 48 hrs relative to control
[14] = Inhibition of RTK/PI3K/AKT/mTOR signaling in human U87 cells assessed as up regulation of TMEM45A gene expression at cytotoxic IC50 measured after 48 hrs relative to control
[15] = Inhibition of RTK/PI3K/AKT/mTOR signaling in human U87 cells assessed as down regulation of TMEM127 gene expression at cytotoxic IC50 measured after 48 hrs relative to control
[16] = Inhibition of RTK/PI3K/AKT/mTOR signaling in human U87 cells assessed as up regulation of glutamate dehydrogenase 1 gene expression at cytotoxic IC50 measured after 48 hrs relative to control
[17] = Inhibition of RTK/PI3K/AKT/mTOR signaling in human U87 cells assessed as down regulation of SKI gene expression at cytotoxic IC50 measured after 48 hrs relative to control
[18] = Inhibition of RTK/PI3K/AKT/mTOR signaling in human U87 cells assessed as up regulation of two pore segment channel 1 gene expression at cytotoxic IC50 measured after 48 hrs relative to control
[19] = Inhibition of RTK/PI3K/AKT/mTOR signaling in human U87 cells assessed as up regulation of CHML gene expression at cytotoxic IC50 measured after 48 hrs relative to control
[20] = Inhibition of RTK/PI3K/AKT/mTOR signaling in human U87 cells assessed as up regulation of kallikrein related peptidase 6 gene expression at cytotoxic IC50 measured after 48 hrs relative to control
[21] = Inhibition of RTK/PI3K/AKT/mTOR signaling in human U87 cells assessed as down regulation of SPTY2D1 gene expression at cytotoxic IC50 measured after 48 hrs relative to control
[22] = Inhibition of RTK/PI3K/AKT/mTOR signaling in human U87 cells assessed as down regulation of POLR2K gene expression at cytotoxic IC50 measured after 48 hrs relative to control
[23] = Inhibition of RTK/PI3K/AKT/mTOR signaling in human U87 cells assessed as down regulation of MTMR9 gene expression at cytotoxic IC50 measured after 48 hrs relative to control
[24] = Inhibition of RTK/PI3K/AKT/mTOR signaling in human U87 cells assessed as up regulation of carbohydrate sulfotransferase 6 gene expression at cytotoxic IC50 measured after 48 hrs relative to control
[25] = Inhibition of RTK/PI3K/AKT/mTOR signaling in human U87 cells assessed as down regulation of C16orf72 gene expression at cytotoxic IC50 measured after 48 hrs relative to control
[26] = Inhibition of RTK/PI3K/AKT/mTOR signaling in human U87 cells assessed as down regulation of ATP6V1A gene expression at cytotoxic IC50 measured after 48 hrs relative to control
[27] = Inhibition of RTK/PI3K/AKT/mTOR signaling in human U87 cells assessed as down regulation of ELOF1 gene expression at cytotoxic IC50 measured after 48 hrs relative to control
[28] = Inhibition of RTK/PI3K/AKT/mTOR signaling in human U87 cells assessed as down regulation of PRKAR2A gene expression at cytotoxic IC50 measured after 48 hrs relative to control
[29] = Inhibition of RTK/PI3K/AKT/mTOR signaling in human U87 cells assessed as up regulation of ADAM metallopeptidase domain 10 gene expression at cytotoxic IC50 measured after 48 hrs relative to control
[30] = Inhibition of RTK/PI3K/AKT/mTOR signaling in human U87 cells assessed as down regulation of SERTAD1 gene expression at cytotoxic IC50 measured after 48 hrs relative to control
[31] = Inhibition of RTK/PI3K/AKT/mTOR signaling in human U87 cells assessed as down regulation of CYLD gene expression at cytotoxic IC50 measured after 48 hrs relative to control
[32] = Inhibition of RTK/PI3K/AKT/mTOR signaling in human U87 cells assessed as down regulation of SUPT7L gene expression at cytotoxic IC50 measured after 48 hrs relative to control

CC(=O)C(=NNc1ccccc1C#N)C(C)=O
log2FC [1]: -0.679
log2FC [2]: 0.49
log2FC [3]: 1.32
log2FC [4]: -2.4
log2FC [5]: -2.02
log2FC [6]: -1.1
log2FC [7]: 1.66
log2FC [8]: -0.868
log2FC [9]: 1.08
log2FC [10]: 0.992
log2FC [11]: 1.02
log2FC [12]: 0.525
log2FC [13]: -1.06
log2FC [14]: 1.91
log2FC [15]: -0.558
log2FC [16]: 0.669
log2FC [17]: -0.728
log2FC [18]: 1.23
log2FC [19]: 1.66
log2FC [20]: 1.33
log2FC [21]: -0.831
log2FC [22]: -1.15
log2FC [23]: -1.1
log2FC [24]: 1.32
log2FC [25]: -0.564
log2FC [26]: -0.573
log2FC [27]: -0.856
log2FC [28]: -0.519
log2FC [29]: 0.727
log2FC [30]: -0.988
log2FC [31]: -1.26
log2FC [32]: -0.55
